The text below walks through data of patent US4656248 (dated 1987).

Several values for one entry are separate records, joined by “and”; a condition that tells them apart may be missing. Equal entries are not always repeated.

The series in a line: peptide synthesis. As to conditions: acetate, one disulfide bridge, sequence written open.

For the substance “Pmp-D-Tyr(Et)-Phe-Val-Asn-Cys-Pro-Arg(NH2)”, the “crude purity (method not given)” value (oxidative folding step, run 1) was 15% pure and 23% pure. Also, where the note is “oxidative folding step, based on purity of the starting material”, the oxidative folding yield is given as 38%. For the setting “purification step”, this substance had a step yield of 97%.
